For 6 molecules, binding results are on record in publication PMC12071843.

Sequences of proteins named here, by UniProt entry; tags and fusion partners are left off. A change or cut given only in a name is not applied to a line headed by its entry.
UniProt P08254: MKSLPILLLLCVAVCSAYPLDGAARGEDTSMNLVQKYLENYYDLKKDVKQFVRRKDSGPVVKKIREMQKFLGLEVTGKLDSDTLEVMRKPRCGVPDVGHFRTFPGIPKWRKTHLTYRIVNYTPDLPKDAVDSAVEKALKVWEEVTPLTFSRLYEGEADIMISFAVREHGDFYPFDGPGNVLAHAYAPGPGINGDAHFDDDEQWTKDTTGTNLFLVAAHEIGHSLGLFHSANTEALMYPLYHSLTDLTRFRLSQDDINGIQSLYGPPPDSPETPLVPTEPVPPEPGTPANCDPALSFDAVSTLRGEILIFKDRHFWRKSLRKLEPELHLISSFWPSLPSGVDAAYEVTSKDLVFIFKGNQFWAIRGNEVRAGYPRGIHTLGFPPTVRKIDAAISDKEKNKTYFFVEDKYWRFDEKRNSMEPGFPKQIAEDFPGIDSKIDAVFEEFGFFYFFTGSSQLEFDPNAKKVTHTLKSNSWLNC

Assay [1] has as its target Matrix metalloproteinase 3 (human (endogenous in OVCAR3CIS)) (UniProt P08254). Nature of the assay: affinity purification with mass spectrometry; extracellular MMP3: supernatants of serum-free OVCAR3CIS cells, untreated or cisplatin-treated, pre-cleared on protein A/G magnetic beads, anti-MMP3 antibody (Abcam) 10 ug/200 ug protein at 4 °C overnight, protein A/G magnetic beads (Pierce MS-compatible Magnetic IP Kit), eluate by LC-MS/MS.

The target is the same in assay [2]. The assay is described as follows: affinity purification with mass spectrometry; intracellular MMP3: protein of serum-free OVCAR3CIS cells, untreated or cisplatin-treated, pre-cleared on protein A/G magnetic beads, anti-MMP3 antibody (Abcam) 10 ug/200 ug protein at 4 °C overnight, protein A/G magnetic beads (Pierce MS-compatible Magnetic IP Kit), eluate by LC-MS/MS; listed proteins consistent in at least two replicates.

No constants are given. Whether binding was seen depends on the method and setting. Binding seen in cells or lysates may run through a third protein. These calls come from enrichment with a bait or labelling near it, and not all partners need be listed.

B1: Small integral membrane protein 35 (protein, UniProt A0A1B0GVV1 1-85)
chain: MTGEDSISTLGLILGVGLLLLLVSILGYSLAKWYQRGYCWEGPNFVFNLYQIRNLKDLEMGPPFTISGHISSTDGGYMKFSNGLV
For B1, in assay [1], the binding result is given as “binds”.

B2: Sorbin and SH3 domain-containing protein 1 (protein, UniProt Q9BX66 1-1292)
chain: MSSECDGGSKAVMNGLAPGSNGQDKATADPLRARSISAVKIIPVKTVKNASGLVLPTDMDLTKICTGKGAVTLRASSSYRETPSSSPASPQETRQHESKPGLEPEPSSADEWRLSSSADANGNAQPSSLAAKGYRSVHPNLPSDKSQDATSSSAAQPEVIVVPLYLVNTDRGQEGTARPPTPLGPLGCVPTIPATASAASPLTFPTLDDFIPPHLQRWPHHSQPARASGSFAPISQTPPSFSPPPPLVPPAPEDLRRVSEPDLTGAVSSTDSSPLLNEVSSSLIGTDSQAFPSVSKPSSAYPSTTIVNPTIVLLQHNREQQKRLSSLSDPVSERRVGEQDSAPTQEKPTSPGKAIEKRAKDDSRRVVKSTQDLSDVSMDEVGIPLRNTERSKDWYKTMFKQIHKLNRDTPEENPYFPTYKFPELPEIQQTSEEDNPYTPTYQFPASTPSPKSEDDDSDLYSPRYSFSEDTKSPLSVPRSKSEMSYIDGEKVVKRSATLPLPARSSSLKSSSERNDWEPPDKKVDTRKYRAEPKSIYEYQPGKSSVLTNEKMSRDISPEEIDLKNEPWYKFFSELEFGKPPPKKIWDYTPGDCSILPREDRKTNLDKDLSLCQTELEADLEKMETLNKAPSANVPQSSAISPTPEISSETPGYIYSSNFHAVKRESDGAPGDLTSLENERQIYKSVLEGGDIPLQGLSGLKRPSSSASTKDSESPRHFIPADYLESTEEFIRRRHDDKEKLLADQRRLKREQEEADIAARRHTGVIPTHHQFITNERFGDLLNIDDTAKRKSGSEMRPARAKFDFKAQTLKELPLQKGDIVYIYKQIDQNWYEGEHHGRVGIFPRTYIELLPPAEKAQPKKLTPVQVLEYGEAIAKFNFNGDTQVEMSFRKGERITLLRQVDENWYEGRIPGTSRQGIFPITYVDVIKRPLVKNPVDYMDLPFSSSPSRSATASPQFSSHSKLITPAPSSLPHSRRALSPEMHAVTSEWISLTVGVPGRRSLALTPPLPPLPEASIYNTDHLALSPRASPSLSLSLPHLSWSDRPTPRSVASPLALPSPHKTYSLAPTSQASLHMNGDGGVHTPSSGIHQDSFLQLPLGSSDSVISQLSDAFSSQSKRQPWREESGQYERKAERGAGERGPGGPKISKKSCLKPSDVVRCLSTEQRLSDLNTPEESRPGKPLGSAFPGSEAEQTERHRGGEQAGRKAARRGGSQQPQAQQRRVTPDRSQTSQDLFSYQALYSYIPQNDDELELRDGDIVDVMEKCDDGWFVGTSRRTKQFGTFPGNYVKPLYL
Turning to B2, the binding entry in assay [1] is recorded as “binds”.

B3: Barrier-to-autointegration factor (protein, UniProt O75531 1-89)
chain: MTTSQKHRDFVAEPMGEKPVGSLAGIGEVLGKKLEERGFDKAYVVLGQFLVLKKDEDLFREWLKDTCGANAKQSRDCFGCLREWCDAFL
B3: in assay [2], the binding result is on record as “binds”.

B4: WD repeat and FYVE domain-containing protein 1 (protein, UniProt Q8IWB7 1-410)
chain: MAAEIHSRPQSSRPVLLSKIEGHQDAVTAALLIPKEDGVITASEDRTIRVWLKRDSGQYWPSIYHTMASPCSAMAYHHDSRRIFVGQDNGAVMEFHVSEDFNKMNFIKTYPAHQNRVSAIIFSLATEWVISTGHDKCVSWMCTRSGNMLGRHFFTSWASCLQYDFDTQYAFVGDYSGQITLLKLEQNTCSVITTLKGHEGSVACLWWDPIQRLLFSGASDNSIIMWDIGGRKGRTLLLQGHHDKVQSLCYLQLTRQLVSCSSDGGIAVWNMDVSREEAPQWLESDSCQKCEQPFFWNIKQMWDTKTLGLRQHHCRKCGQAVCGKCSSKRSSYPVMGFEFQVRVCDSCYDSIKDEDRTSLATFHEGKHNISHMSMDIARGLMVTCGTDRIVKIWDMTPVVGCSLATGFSPH
For the molecule B4, the binding result in assay [2] is “binds”.

B5: E3 ubiquitin-protein ligase TRIM41 (protein, UniProt Q8WV44 1-630)
chain: MAAVAMTPNPVQTLQEEAVCAICLDYFTDPVSIGCGHNFCRVCVTQLWGGEDEEDRDELDREEEEEDGEEEEVEAVGAGAGWDTPMRDEDYEGDMEEEVEEEEEGVFWTSGMSRSSWDNMDYVWEEEDEEEDLDYYLGDMEEEDLRGEDEEDEEEVLEEVEEEDLDPVTPLPPPPAPRRCFTCPQCRKSFPRRSFRPNLQLANMVQVIRQMHPTPGRGSRVTDQGICPKHQEALKLFCEVDEEAICVVCRESRSHKQHSVVPLEEVVQEYKAKLQGHVEPLRKHLEAVQKMKAKEERRVTELKSQMKSELAAVASEFGRLTRFLAEEQAGLERRLREMHEAQLGRAGAAASRLAEQAAQLSRLLAEAQERSQQGGLRLLQDIKETFNRCEEVQLQPPEVWSPDPCQPHSHDFLTDAIVRKMSRMFCQAARVDLTLDPDTAHPALMLSPDRRGVRLAERRQEVADHPKRFSADCCVLGAQGFRSGRHYWEVEVGGRRGWAVGAARESTHHKEKVGPGGSSVGSGDASSSRHHHRRRRLHLPQQPLLQREVWCVGTNGKRYQAQSSTEQTLLSPSEKPRRFGVYLDYEAGRLGFYNAETLAHVHTFSAAFLGERVFPFFRVLSKGTRIKLCP
As for B5, in assay [1], the binding result is recorded as “binds”.

B6: ATP-dependent DNA helicase Q4 (protein, UniProt O94761 1-1208)
chain: MERLRDVRERLQAWERAFRRQRGRRPSQDDVEAAPEETRALYREYRTLKRTTGQAGGGLRSSESLPAAAEEAPEPRCWGPHLNRAATKSPQSTPGRSRQGSVPDYGQRLKANLKGTLQAGPALGRRPWPLGRASSKASTPKPPGTGPVPSFAEKVSDEPPQLPEPQPRPGRLQHLQASLSQRLGSLDPGWLQRCHSEVPDFLGAPKACRPDLGSEESQLLIPGESAVLGPGAGSQGPEASAFQEVSIRVGSPQPSSSGGEKRRWNEEPWESPAQVQQESSQAGPPSEGAGAVAVEEDPPGEPVQAQPPQPCSSPSNPRYHGLSPSSQARAGKAEGTAPLHIFPRLARHDRGNYVRLNMKQKHYVRGRALRSRLLRKQAWKQKWRKKGECFGGGGATVTTKESCFLNEQFDHWAAQCPRPASEEDTDAVGPEPLVPSPQPVPEVPSLDPTVLPLYSLGPSGQLAETPAEVFQALEQLGHQAFRPGQERAVMRILSGISTLLVLPTGAGKSLCYQLPALLYSRRSPCLTLVVSPLLSLMDDQVSGLPPCLKAACIHSGMTRKQRESVLQKIRAAQVHVLMLTPEALVGAGGLPPAAQLPPVAFACIDEAHCLSQWSHNFRPCYLRVCKVLRERMGVHCFLGLTATATRRTASDVAQHLAVAEEPDLHGPAPVPTNLHLSVSMDRDTDQALLTLLQGKRFQNLDSIIIYCNRREDTERIAALLRTCLHAAWVPGSGGRAPKTTAEAYHAGMCSRERRRVQRAFMQGQLRVVVATVAFGMGLDRPDVRAVLHLGLPPSFESYVQAVGRAGRDGQPAHCHLFLQPQGEDLRELRRHVHADSTDFLAVKRLVQRVFPACTCTCTRPPSEQEGAVGGERPVPKYPPQEAEQLSHQAAPGPRRVCMGHERALPIQLTVQALDMPEEAIETLLCYLELHPHHWLELLATTYTHCRLNCPGGPAQLQALAHRCPPLAVCLAQQLPEDPGQGSSSVEFDMVKLVDSMGWELASVRRALCQLQWDHEPRTGVRRGTGVLVEFSELAFHLRSPGDLTAEEKDQICDFLYGRVQARERQALARLRRTFQAFHSVAFPSCGPCLEQQDEERSTRLKDLLGRYFEEEEGQEPGGMEDAQGPEPGQARLQDWEDQVRCDIRQFLSLRPEEKFSSRAVARIFHGIGSPCYPAQVYGQDRRFWRKYLHLSFHALVGLATEELLQVAR
Take B6: the binding result in assay [1] was “binds”.
